In all, about 330,000 compounds went through this assay and about 7,700 (2.3%) were called active. Inconclusive results, whose numbers are uncertain, are shown with a selection of clear calls. The call rests on the fitted dose curve; in most records, active means well fitted inhibition curve with a large enough effect; inconclusive means small, poorly fitted or top-dose-only effect, or effect the other way; inactive means flat fitted curve, though single readings scatter. A potency beside an inconclusive call is a rough fit, not a confirmed value.
assay: qHTS screen for small molecules that inhibit ELG1-dependent DNA repair in human embryonic kidney (HEK293T) cells expressing luciferase-tagged ELG1; conditions: HEK293T ELG1-luciferase reporter, luminescence, 16 h, DNA damage induced by 5-fluorouridine; series mostly up to 46.1 µM; further: nearly all actives have a fitted effect of over 55% in size
Procedure, shortened: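 In this reporter screen, reduction of luminescence relative to DMSO vehicle indicated activity. Compounds and 5-fluorouridine were added together to 2,000 cells per well, incubated for 16 hr at 37 °C, then developed with ONE-Glo.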
Potency means the concentration at half of the fitted maximal effect.

Row | Compound | Potency
1 | C/C=C/C(=O)OCC(=O)Nc1ccc(C)c(S(=O)(=O)N(C)C)c1 | inactive
2 | COC(=O)C1=C(C)NC(C)=C([N+](=O)[O-])C1c1ccccc1C(F)(F)F (configuration not stated) | inactive
3 | CC(/C=C/c1ccccc1)=N\NC(=O)C1CC1(C)c1ccccc1 (configuration not stated) | active: 23.1 µM
4 | COc1cccc2sc(NNC(=O)COc3ccccc3)nc12 | inactive
5 | O=C(CSc1n[nH]c(-c2ccccn2)n1)Nc1ccccc1 | inconclusive: 23.1 µM [activator, partial curve, poor fit]
6 | c1ccc(-c2nc3ccccc3[nH]2)cc1 | inconclusive: 5.17 µM [activator, partial curve]
7 | Cc1ccc(NC(=O)C(c2ccccc2)N2CCN(CC(=O)N3CCOCC3)CC2)cc1 (configuration not stated) | inconclusive: 20.6 µM [activator, single point]
8 | CCn1nc(C)c(Br)c1-c1nc(CS(=O)(=O)c2ccc(F)cc2)no1 | inactive
9 | CN1CCN(C(=O)C2CCC(=O)N(CCc3cccc(F)c3)C2)CC1 (configuration not stated) | inactive
10 | COCCn1c(C)cc(C(=O)CSc2nncn2-c2ccccc2)c1C | inconclusive: 10 µM [activator, single point]
11 | CC(=O)NS(=O)(=O)c1ccc(Nc2ccc([N+](=O)[O-])c3nonc23)cc1 | inactive
12 | Nc1ccc(-c2nc3ncccc3o2)c(Cl)c1 | inconclusive: 14.6 µM [activator, partial curve]
13 | CC(C(=O)N(C)Cc1cccc(F)c1)N1CCN(S(=O)(=O)c2ccc3c(c2)OCCCO3)CC1 (configuration not stated) | inactive
14 | COc1ccc(Cl)cc1C(=O)NC1=NCCS1 | inconclusive: 20.6 µM [activator, partial curve, poor fit]
15 | C#CCCc1cscc1/C=[N+](\[O-])c1ccc(C(=O)OCC)cc1 | inconclusive: 23.1 µM [activator, partial curve]
16 | COc1ccc(OC)c(-c2csc(NC(=O)COC(=O)C3(C)CC3(Cl)Cl)n2)c1 (configuration not stated) | inconclusive: 29.1 µM [inhibitor, single point]
17 | O=C(c1ccco1)N1CCC(c2nc3c(nnn3Cc3ccccc3Cl)c(=O)[nH]2)CC1 | inactive
18 | O=c1[nH]c(SCc2ccc(Cl)cc2)nc2ccsc12 | inconclusive: 18.3 µM [activator, partial curve]
19 | COc1cc2[nH]c(=S)n(Cc3ccccc3)c(=O)c2cc1OC | inactive
20 | CN(C)/C=C/C(=O)c1cnc(-c2ccc(Cl)cc2)s1 | inconclusive: 9.2 µM [activator, partial curve]
21 | Cc1cc(C(=O)COC(=O)CC2Sc3ccccc3NC2=O)c(C)n1-c1cccc(C(F)(F)F)c1 (configuration not stated) | inactive
22 | Cc1ccc(SC[C@H](CC(C)C)N2CCN(C)CCC2=O)cc1 | inconclusive: 18.3 µM [activator, partial curve]
23 | CCOc1ccc2nc(SCC)[nH]c2c1 | inconclusive: 23.1 µM [activator, partial curve]
24 | Cc1cc(C)cc(C(=O)Nc2ccc(NC(=O)c3cccs3)cc2)c1 | inconclusive: 13 µM [inhibitor, partial curve, poor fit]

Ordered by length of the SMILES (smallest number first): part of the list above
Row | Compound | Potency
20 | CN(C)/C=C/C(=O)c1cnc(-c2ccc(Cl)cc2)s1 | inconclusive: 9.2 µM [activator, partial curve]
9 | CN1CCN(C(=O)C2CCC(=O)N(CCc3cccc(F)c3)C2)CC1 (configuration not stated) | inactive
21 | Cc1cc(C(=O)COC(=O)CC2Sc3ccccc3NC2=O)c(C)n1-c1cccc(C(F)(F)F)c1 (configuration not stated) | inactive

Carrying on:

Row | Compound | Potency
25 | CCCN(CCC)S(=O)(=O)c1ccc(C(=O)Nc2ccc(OCC(=O)N3CCOCC3)cc2)cc1 | inconclusive: 23.1 µM [inhibitor, partial curve, poor fit]
26 | CN(Cc1cc2ccccc2[nH]c1=O)S(C)(=O)=O | inconclusive: 3.26 µM [inhibitor, single point]
27 | COc1cccc2[nH]c(C(=O)NN)c(N)c12 | inconclusive: 32.6 µM [inhibitor, single point]
28 | O=C(/C(Br)=C/Nc1cc(Cl)ccc1Cl)C(F)(F)F | inconclusive: 20.6 µM [activator, single point]
29 | COCCCN1C(=O)c2ccc(C(=O)NCCc3ccccc3)cc2C1=O | inconclusive: 23.1 µM [activator, partial curve]
30 | Cc1nnc2c(SC(C)C)nc3ccccc3n12 | inactive
31 | Cc1cc(N2C(=O)C(O)=C(C(=O)c3cccs3)C2c2ccccc2)no1 (configuration not stated) | inactive
32 | CCN1C(=O)[C@H]2[C@@H](c3ccc(-c4cccc(Cl)c4)cc3)N[C@@](C)(C(=O)OC)[C@H]2C1=O | inconclusive: 31.6 µM [inhibitor, single point]
33 | Cc1ccc(C(=O)Nc2nc(C)c(C(=O)N(C)C)s2)o1 | inconclusive: 20.6 µM [activator, partial curve]
34 | COc1ccc(C(=O)N(c2ccccn2)C2CCCCC2)c(OC)c1 | inactive
35 | O=C(Nc1ccc(Nc2ccccc2)cc1)C(Cl)(Cl)Cl | inconclusive: 29.1 µM [inhibitor, single point]
36 | CCCCN(C)CCCNC(=O)CN1C(=O)CSc2ccc(S(=O)(=O)N3CCOCC3)cc21 | inactive
37 | CC1CC(C)(C)NC(=S)N1CC(=O)NCc1ccc2c(c1)OCO2 (configuration not stated) | inactive
38 | Cc1n[nH]c(=O)c2c(NC(=O)CSc3nc4ccccc4c(=O)n3CCCO)oc(C)c12 | inconclusive: 11.6 µM [inhibitor, partial curve, poor fit]
39 | COc1ccccc1Nc1ncc(C(=O)N2CCN(Cc3ccc(OC)c(OC)c3OC)CC2)c2ccccc12 | inconclusive: 6.51 µM [inhibitor, single point]
40 | Cc1ccc(CNC(=O)C2CCCCN2S(=O)(=O)c2ccccc2)cc1 (configuration not stated) | inactive
41 | O=C(NC1CCCCC1)C(c1ccco1)N(C(=O)c1csnn1)c1cccc(Cl)c1 (configuration not stated) | inactive
42 | Cc1cc(C(C)(C)C)ccc1OCCCCN1CCCC1 | inactive
43 | Cc1cc(C)c2nc(N3C(=O)C(O)=C(C(=O)c4ccco4)C3c3ccc(O)cc3)sc2c1 (configuration not stated) | inconclusive: 7.3 µM [activator, partial curve, poor fit]
44 | COc1ccc(F)cc1COc1nc(C)nc2ccccc12 | inactive
45 | Cc1nc(SCC(=O)Nc2nc3ccccc3s2)n[nH]1 | inconclusive: 8.2 µM [activator, partial curve]
46 | COC(=O)c1ccc(CSc2ccc3nnc(-c4cccc(F)c4)n3n2)o1 | inconclusive: 20.6 µM [inhibitor, single point]
47 | CCn1c(SCc2ccc(C(=O)Nc3nccs3)cc2)nnc1-c1ccc(N)cc1 | inconclusive: 25.9 µM [inhibitor, single point]

— PubChem BioAssay AID504467 (National Center for Advancing Translational Sciences (NCATS), 2011)
